The values below come from PubChem BioAssay AID248 (DTP/NCI, 2004).

This assay relates to L1210 leukemia ip in BDF1 mice, survival T/C. Nature of the assay: NCI In Vivo Anticancer Drug Screen. Data for tumor model L1210 Leukemia (intraperitoneal) in B6D2F1 (BDF1) mice. The conditions noted are these: T/C endpoint: mean survival time, higher T/C = longer survival.
Where [1] appears, read: dose: 400.0 mg/kg/injection, schedule: Q01DX001 (ip), vehicle: carboxymethylcellulose (CMC).
The mark [2] stands for this setting: dose: 100.0 mg/kg/injection, schedule: Q01DX009 (ip), vehicle: saline.
[3] abbreviates: dose: 400.0 mg/kg/injection, schedule: Q01DX001 (ip), vehicle: saline.
Where [4] appears, read: dose: 400.0 mg/kg/injection, schedule: Q04DX003 (ip), vehicle: saline.
Setting [5] is: dose: 400.0 mg/kg/injection, schedule: Q04DX003 (ip), vehicle: saline with Tween-80.
The mark [6] stands for this setting: dose: 50.0 mg/kg/injection, schedule: Q01DX009 (ip), vehicle: saline.
The mark [7] stands for this setting: dose: 200.0 mg/kg/injection, schedule: Q04DX003 (ip), vehicle: saline.
Setting [8] is: dose: 100.0 mg/kg/injection, schedule: Q04DX003 (ip), vehicle: saline.
Setting [9] is: dose: 400.0 mg/kg/injection, schedule: Q01DX009 (ip), vehicle: saline with Tween-80.

SMILES strings stand for the structures. The list does not hold the whole screen: it is rich in T/C values a quarter to a half above the control, in often repeated tests (any T/C) and in doses without a T/C. Other doses and runs of a compound stand elsewhere. T/C: endpoint of the treated group in % of that of the vehicle group. Some doses have a count of surviving animals in place of a T/C: the source holds a T/C of zero for them, seemingly a mark for toxic or unscored doses. Some doses without a T/C left all or most animals alive at the check, yet need not have been tolerated: survival well below the control is almost never listed, so the zero probably covers shortened survival too. Counts of survivors are from the toxicity check (mostly the fifth day) where no day follows; animals may have died later. Schedule codes are those of the source, read here as Q, the interval in days (D) or hours (H), X, the number of doses. Some doses were run more than once; their values stand side by side, smallest first. Some schedule codes hold Z or #, which are not explained here. Where survival is the endpoint, this PubChem deposit counts one and a half times the control or more as active, and values a quarter to a half above the control carry no call in these data; other NCI protocols may use other cut-offs. Some T/C values carry the count of animals alive at the toxicity check (mostly the fifth day); without a count, all were alive then.

As for `NC(=O)N/N=C1\CC2CC1C1C=CCC21` (stereo not drawn), under setting [1], the survivor count is 2 of 4.
For the compound `COc1ccc(/C=N/NC(=O)CNC(=O)NCc2ccccc2)cc1`, where the note is “dose: 400.0 mg/kg/injection, schedule: Q01DX009 (ip), vehicle: Klucel (hydroxypropylcellulose) (HPC)”, the survivor count is on record as 6 of 6.
As for `[Cl][Sn]([Cl])([c]1ccccc1)[c]1ccccc1.c1ccncc1`, the survivor count by setting is: under setting [2], 1 of 3; (dose: 200.0 mg/kg/injection, schedule: Q01DX009 (ip), vehicle: saline) 0 of 6; (dose: 400.0 mg/kg/injection, schedule: Q01DX009 (ip), vehicle: saline) 0 of 6.
Take `N#CCC[N+]1([O-])CCCCC1C(=O)O` (stereo not drawn): the survivor count under setting [3] is reported as 0 of 4.
For `C[n+]1ccccc1C(=O)O` (tested in a mixture with another compound), the survivor count under setting [4] is given as 0 of 6.
Consider `COC(=O)c1cc(C)cc(N(c2ccccc2N)S(=O)(=O)c2ccc(C)cc2)c1C`, for which the survivor count under setting [3] is 4 of 4.
For the compound `CCOP(=O)(OCC)N1C(=O)CCC1=O`, the survivor count is reported as 0 of 6 (dose: 55.0 mg/kg/injection, schedule: Q01DX009 (ip), vehicle: saline) and 1 of 6 (dose: 80.0 mg/kg/injection, schedule: Q04DX003 (ip), vehicle: saline).
Consider `O=C(O)c1cccc(-c2ccccc2)c1`, for which the survivor count (dose: 100.0 mg/kg/injection, schedule: Q04DX003 (ip), vehicle: saline with Tween-80) was 6 of 6 and the survivor count under setting [5] is reported as 4 of 6.
As to `O=C(C=C(C(F)(F)F)C(F)(F)F)c1cccs1`, the survivor count under setting [6] was 1 of 6, the survivor count under setting [2] was 2 of 6, the survivor count under setting [7] is reported as 5 of 6 and the survivor count under setting [4] is given as 2 of 6.
For the compound `CN(C)CCN1C(=O)c2ccccc2N(C)c2ccccc21`, the survivor count runs as follows: under setting [8], 3 of 4; under setting [7], 4 of 4; under setting [4], 0 of 4.
`NC1(C(=O)O)CCCc2ccc(N(CCCl)CCCl)cc21` (stereo not drawn): the T/C (dose: 0.9 mg/kg/injection, schedule: Q01DX009 (ip), vehicle: carboxymethylcellulose (CMC)) was 127 % of control; the T/C (dose: 1.89 mg/kg/injection, schedule: Q01DX009 (ip), vehicle: carboxymethylcellulose (CMC)) was 136 % of control; the T/C (dose: 3.6 mg/kg/injection, schedule: Q01DX009 (ip), vehicle: carboxymethylcellulose (CMC), evaluated on day 30) was 133 % of control; the T/C (dose: 3.6 mg/kg/injection, schedule: Q01DX009 (ip), vehicle: carboxymethylcellulose (CMC), run until all animals had died) is 134 % of control; the T/C (dose: 3.78 mg/kg/injection, schedule: Q01DX009 (ip), vehicle: carboxymethylcellulose (CMC)) was 139 % of control; the T/C (dose: 5.5 mg/kg/injection, schedule: Q01DX009 (ip), vehicle: carboxymethylcellulose (CMC), evaluated on day 30) is 136 % of control. For the same compound, the T/C is, setting by setting: (dose: 5.5 mg/kg/injection, schedule: Q01DX009 (ip), vehicle: carboxymethylcellulose (CMC), run until all animals had died) 132 % of control; (dose: 6.48 mg/kg/injection, schedule: Q01DX009 (ip), vehicle: carboxymethylcellulose (CMC)) 147 % of control; (dose: 8.3 mg/kg/injection, schedule: Q01DX009 (ip), vehicle: carboxymethylcellulose (CMC)) 135 % of control [5 of 6 alive]; (dose: 12.0 mg/kg/injection, schedule: Q01DX001 (ip), vehicle: carboxymethylcellulose (CMC)) 137 % of control; (dose: 16.6 mg/kg/injection, schedule: Q01DX001 (ip), vehicle: carboxymethylcellulose (CMC)) 133 % of control; (dose: 24.0 mg/kg/injection, schedule: Q01DX001 (ip), vehicle: carboxymethylcellulose (CMC)) 130 and 141 % of control [5 of 6 alive]. The T/C is, setting by setting: (dose: 25.0 mg/kg/injection, schedule: Q01DX001 (ip), vehicle: carboxymethylcellulose (CMC)) 137 and 149 % of control; (dose: 36.0 mg/kg/injection, schedule: Q01DX001 (ip), vehicle: carboxymethylcellulose (CMC)) 135 % of control. In addition, the survivor count is, setting by setting: (dose: 25.0 mg/kg/injection, schedule: Q01DX009 (ip), vehicle: carboxymethylcellulose (CMC)) 4 of 6; (dose: 36.0 mg/kg/injection, schedule: Q01DX009 (ip), vehicle: carboxymethylcellulose (CMC)) 5 of 6; (dose: 37.5 mg/kg/injection, schedule: Q01DX001 (ip), vehicle: carboxymethylcellulose (CMC)) 2 of 6; (dose: 72.0 mg/kg/injection, schedule: Q01DX009 (ip), vehicle: carboxymethylcellulose (CMC)) 5 of 6; (dose: 96.0 mg/kg/injection, schedule: Q01DX001 (ip), vehicle: carboxymethylcellulose (CMC)) 0 of 6; (dose: 100.0 mg/kg/injection, schedule: Q01DX001 (ip), vehicle: carboxymethylcellulose (CMC)) 0 of 6 and 2 of 6. In addition, the survivor count (dose: 200.0 mg/kg/injection, schedule: Q01DX001 (ip), vehicle: carboxymethylcellulose (CMC)) was 0 of 6 and the survivor count under setting [1] was 1 of 6.
`Cc1c2ccnc(-c3ccccc3)c2cc2c1[nH]c1ccccc12`: the survivor count runs as follows: (dose: 1000.0 mg/kg/injection, schedule: Q01DX015 (oral), vehicle: carboxymethylcellulose (CMC)) 6 of 6; (dose: 2000.0 mg/kg/injection, schedule: Q01DX015 (oral), vehicle: carboxymethylcellulose (CMC)) 6 of 6.
Consider `CC1(C)C2CCC1(C)C(CO)C2` (stereo not drawn), for which the survivor count (dose: 400.0 mg/kg/injection, schedule: Q04DX003 (ip), vehicle: other) was 6 of 6.
Turning to `Cc1ncc(CO)c(COCCC(C)C)c1O`, where the note is “dose: 400.0 mg/kg/injection, schedule: Q04DX002 (ip), vehicle: saline”, the survivor count is on record as 0 of 3.
Take `O=C(CC(=O)Nc1ccc(C2=NCCCN2)cc1)Nc1ccc(C2=NCCCN2)cc1`: where the note is “dose: 500.0 mg/kg/injection, schedule: Q01DX Z (ip), vehicle: water”, the survivor count is given as 0 of 6.
In the case of `COC(=O)C1=COC(C)C(C=O)C1CC(=O)O` (stereo not drawn), the survivor count is given as 6 of 6 under setting [6]; 3 of 6 under setting [8]; 0 of 6 (dose: 200.0 mg/kg/injection, schedule: Q01DX001 (ip), vehicle: saline); 0 of 6 under setting [3]. Besides, the T/C (dose: 100.0 mg/kg/injection, schedule: Q01DX001 (ip), vehicle: saline) is 125 % of control.
On to `C#CCOP(=O)(C#CC)OCC#C`, for which the survivor count is listed as 0 of 6 (dose: 200.0 mg/kg/injection, schedule: Q04DX003 (ip), vehicle: saline with Tween-80) and 0 of 6 under setting [5].
As for `CC/C(=C/c1ccccc1)C(N)=O`, the survivor count (dose: 400.0 mg/kg/injection, schedule: Q01DX001 (ip), vehicle: steroid suspending solution) is on record as 0 of 6.
On to `CC1=CC(=O)C(C(O)(C(F)(F)Cl)C(F)(F)Cl)C(C)(C)C1` (stereo not drawn) (tested in a mixture with another compound), for which, under setting [9], the survivor count was 1 of 6.
In the case of `O=C(O)c1cc(S(=O)(=O)F)c(Cl)cc1Cl`, the survivor count runs as follows: (dose: 200.0 mg/kg/injection, schedule: Q01DX009 (ip), vehicle: saline with Tween-80) 3 of 6; under setting [9], 3 of 6.
On to `FC(Cl)(Cl)c1nc2nc(Cl)c(Cl)nc2[nH]1`, for which the survivor count by setting is: (dose: 200.0 mg/kg/injection, schedule: Q01DX009 (ip), vehicle: water) 1 of 6; (dose: 400.0 mg/kg/injection, schedule: Q01DX009 (ip), vehicle: water) 1 of 6.
As for `ClCc1nc2ccc(Cl)cc2[nH]1`, the survivor count (dose: 400.0 mg/kg/injection, schedule: Q01DX001 (ip), vehicle: other) is listed as 2 of 4.
With `CCOP(=S)(OCC)OP(=S)(OCC)OCC`, for the setting “dose: 4.0 mg/kg/injection, schedule: Q01DX009 (ip), vehicle: other”, the survivor count was 0 of 6.
In the case of `COc1ccc(N)cc1`, the survivor count (dose: 400.0 mg/kg/injection, schedule: Q01DX009 (ip), vehicle: alcohol) is listed as 5 of 6.
Turning to `C=CCNCC=C`, the survivor count under setting [3] is recorded as 0 of 4.
